Holding throughout (assay): log2 fold change, soluble protein after heating vs DMSO (PISA); higher = thermal stabilisation; K562 cells, 10 uM, 30 min; active = over 0.2 and 3.5 SD of the protein, either way, in both replicates (recomputed)
Compound in one test: CN1CCN(CCOc2cc(OC3CCOCC3)c3c(Nc4c(Cl)ccc5c4OCO5)ncnc3c2)CC1 [saracatinib]
Put shortly: (§1)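 K562 cells (2×10^6 cells/mL) were treated with 10 μM compound for 30 min, and aliquots were heated for 3 min over 48°C-58°C. Pooled aliquots were extracted in PBS with 0.5% NP-40 at 4°C, and the supernatant after 21,000xg for 90 min was measured by TMTpro 16plex LC-MS/MS with channel sums equalised. Reported thermal stability, relative to control samples and from duplicates, is a log2 fold change.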

Amino acid sequences for entries named in this document (tags omitted). A change or cut given only in a name is not applied to a line headed by its entry.
UniProt Q6P9B9, whole entry, looked up: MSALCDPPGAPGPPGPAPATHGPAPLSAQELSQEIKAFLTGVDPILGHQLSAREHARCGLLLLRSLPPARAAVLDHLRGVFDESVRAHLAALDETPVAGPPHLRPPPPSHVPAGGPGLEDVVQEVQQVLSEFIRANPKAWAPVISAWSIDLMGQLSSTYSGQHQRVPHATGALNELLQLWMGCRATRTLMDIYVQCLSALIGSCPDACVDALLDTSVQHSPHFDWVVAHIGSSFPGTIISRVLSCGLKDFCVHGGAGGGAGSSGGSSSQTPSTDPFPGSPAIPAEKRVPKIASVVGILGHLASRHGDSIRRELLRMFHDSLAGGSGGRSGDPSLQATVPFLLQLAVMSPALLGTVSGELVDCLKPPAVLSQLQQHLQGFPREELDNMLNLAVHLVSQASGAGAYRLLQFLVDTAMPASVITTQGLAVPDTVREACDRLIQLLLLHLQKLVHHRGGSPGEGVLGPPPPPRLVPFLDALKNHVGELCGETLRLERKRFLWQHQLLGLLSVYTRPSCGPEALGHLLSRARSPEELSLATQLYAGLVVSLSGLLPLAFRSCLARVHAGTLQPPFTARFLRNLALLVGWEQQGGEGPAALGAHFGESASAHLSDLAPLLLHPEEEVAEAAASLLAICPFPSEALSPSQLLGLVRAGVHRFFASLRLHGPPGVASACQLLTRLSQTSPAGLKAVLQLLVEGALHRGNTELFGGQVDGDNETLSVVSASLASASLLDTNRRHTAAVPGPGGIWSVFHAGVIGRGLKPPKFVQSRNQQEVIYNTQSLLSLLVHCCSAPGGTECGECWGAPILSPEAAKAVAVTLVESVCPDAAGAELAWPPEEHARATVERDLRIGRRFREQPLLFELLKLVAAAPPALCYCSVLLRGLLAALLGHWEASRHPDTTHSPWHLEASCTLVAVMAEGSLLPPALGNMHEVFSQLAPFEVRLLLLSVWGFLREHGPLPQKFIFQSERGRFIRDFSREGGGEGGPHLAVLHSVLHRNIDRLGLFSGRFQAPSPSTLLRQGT
UniProt Q9H0H0, whole entry, looked up: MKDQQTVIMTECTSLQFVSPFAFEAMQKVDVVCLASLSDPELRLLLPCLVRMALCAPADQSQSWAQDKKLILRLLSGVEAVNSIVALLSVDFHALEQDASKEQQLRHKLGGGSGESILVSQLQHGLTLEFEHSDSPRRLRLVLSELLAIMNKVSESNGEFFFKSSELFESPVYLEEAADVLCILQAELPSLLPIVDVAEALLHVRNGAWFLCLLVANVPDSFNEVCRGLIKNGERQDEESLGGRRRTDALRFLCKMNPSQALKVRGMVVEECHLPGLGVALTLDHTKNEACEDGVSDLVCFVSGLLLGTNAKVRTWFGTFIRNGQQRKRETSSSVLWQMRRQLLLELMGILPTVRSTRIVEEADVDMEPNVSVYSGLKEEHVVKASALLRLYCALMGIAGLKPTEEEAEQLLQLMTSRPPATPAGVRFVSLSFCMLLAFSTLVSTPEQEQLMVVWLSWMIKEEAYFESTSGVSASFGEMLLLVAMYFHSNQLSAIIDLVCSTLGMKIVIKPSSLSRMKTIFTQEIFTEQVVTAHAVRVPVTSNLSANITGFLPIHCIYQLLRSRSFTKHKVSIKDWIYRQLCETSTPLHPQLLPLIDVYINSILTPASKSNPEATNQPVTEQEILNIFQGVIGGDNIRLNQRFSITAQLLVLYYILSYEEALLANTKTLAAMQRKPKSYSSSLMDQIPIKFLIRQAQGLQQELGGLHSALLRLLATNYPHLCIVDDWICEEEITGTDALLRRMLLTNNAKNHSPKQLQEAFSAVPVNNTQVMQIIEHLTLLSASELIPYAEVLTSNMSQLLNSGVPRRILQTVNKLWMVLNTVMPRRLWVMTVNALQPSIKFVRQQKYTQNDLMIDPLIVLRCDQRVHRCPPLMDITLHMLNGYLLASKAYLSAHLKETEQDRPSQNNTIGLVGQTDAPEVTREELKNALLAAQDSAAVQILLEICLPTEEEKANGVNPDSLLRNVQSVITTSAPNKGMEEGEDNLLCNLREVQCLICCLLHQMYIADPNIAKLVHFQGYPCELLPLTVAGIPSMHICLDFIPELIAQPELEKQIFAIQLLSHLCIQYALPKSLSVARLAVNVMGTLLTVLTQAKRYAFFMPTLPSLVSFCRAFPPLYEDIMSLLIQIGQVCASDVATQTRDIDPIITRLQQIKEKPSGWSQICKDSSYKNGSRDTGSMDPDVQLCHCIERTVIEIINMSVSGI
UniProt P0DMQ5: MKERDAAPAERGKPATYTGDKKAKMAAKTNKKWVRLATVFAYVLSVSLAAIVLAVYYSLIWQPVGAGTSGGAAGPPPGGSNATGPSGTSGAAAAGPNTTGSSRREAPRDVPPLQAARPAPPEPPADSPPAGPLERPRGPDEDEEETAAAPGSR
UniProt P24592: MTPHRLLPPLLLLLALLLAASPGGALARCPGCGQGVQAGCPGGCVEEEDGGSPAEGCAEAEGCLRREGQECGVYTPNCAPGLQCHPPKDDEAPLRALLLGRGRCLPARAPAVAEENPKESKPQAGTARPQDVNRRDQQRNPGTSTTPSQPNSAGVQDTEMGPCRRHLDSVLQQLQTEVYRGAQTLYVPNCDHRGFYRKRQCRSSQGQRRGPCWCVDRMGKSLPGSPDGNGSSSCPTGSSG
UniProt Q9UNL4, whole entry, looked up: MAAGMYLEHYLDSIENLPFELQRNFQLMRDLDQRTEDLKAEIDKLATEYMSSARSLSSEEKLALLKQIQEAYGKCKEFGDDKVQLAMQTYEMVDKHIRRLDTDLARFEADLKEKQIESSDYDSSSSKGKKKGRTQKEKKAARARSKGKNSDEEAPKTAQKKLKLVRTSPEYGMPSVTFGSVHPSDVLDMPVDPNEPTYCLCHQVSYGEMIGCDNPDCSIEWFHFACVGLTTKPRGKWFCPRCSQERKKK
UniProt Q96G21: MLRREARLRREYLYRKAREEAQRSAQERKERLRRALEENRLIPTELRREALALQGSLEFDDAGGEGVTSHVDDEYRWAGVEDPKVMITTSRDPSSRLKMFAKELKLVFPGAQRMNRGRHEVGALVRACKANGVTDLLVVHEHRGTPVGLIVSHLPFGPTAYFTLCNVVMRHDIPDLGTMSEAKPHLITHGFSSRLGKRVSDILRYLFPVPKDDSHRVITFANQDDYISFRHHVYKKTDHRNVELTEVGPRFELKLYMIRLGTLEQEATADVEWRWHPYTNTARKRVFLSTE
UniProt Q5VWK5: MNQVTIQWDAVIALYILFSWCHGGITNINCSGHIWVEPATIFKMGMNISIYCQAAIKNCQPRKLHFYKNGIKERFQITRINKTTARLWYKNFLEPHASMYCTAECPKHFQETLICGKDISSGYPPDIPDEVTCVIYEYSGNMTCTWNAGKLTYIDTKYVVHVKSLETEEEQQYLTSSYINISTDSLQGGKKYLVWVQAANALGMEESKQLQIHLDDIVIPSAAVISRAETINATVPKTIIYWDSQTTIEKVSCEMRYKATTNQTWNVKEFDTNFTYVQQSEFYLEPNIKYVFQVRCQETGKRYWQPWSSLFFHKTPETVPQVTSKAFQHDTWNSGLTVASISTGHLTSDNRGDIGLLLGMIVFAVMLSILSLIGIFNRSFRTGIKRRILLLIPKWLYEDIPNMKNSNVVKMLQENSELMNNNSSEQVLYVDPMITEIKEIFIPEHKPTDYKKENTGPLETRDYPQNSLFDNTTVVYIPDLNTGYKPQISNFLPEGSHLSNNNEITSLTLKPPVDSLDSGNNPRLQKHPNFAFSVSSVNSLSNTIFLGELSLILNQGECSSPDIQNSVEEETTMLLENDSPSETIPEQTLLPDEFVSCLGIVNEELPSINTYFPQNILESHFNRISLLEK
UniProt Q9BW83: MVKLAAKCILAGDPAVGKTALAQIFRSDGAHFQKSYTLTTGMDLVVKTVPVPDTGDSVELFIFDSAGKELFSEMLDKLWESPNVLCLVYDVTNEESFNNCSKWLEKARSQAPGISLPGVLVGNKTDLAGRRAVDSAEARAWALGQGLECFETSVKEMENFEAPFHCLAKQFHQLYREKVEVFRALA

Compound in the next test: CN1CCN(c2nc(C3=C(c4c[nH]c5ccccc45)C(=O)NC3=O)c3ccccc3n2)CC1 [sotrastaurin]
The procedure, abridged: as §1

Compound in the next test: CN1CCc2c(c3ccccc3n2Cc2ccc(C(=O)NO)cc2)C1 [Tubastatin A]
The procedure, abridged: as §1

Compound in test [1]: CNC(=O)C1=CC=CC=C1NC2=NC(=NC=C2Cl)NC3=C(C=C(C=C3)N4CCOCC4)OC
Put shortly: as §1

Compound in another test: CNC(=O)c1ccc(Nc2ncc(C(F)(F)F)c(NCc3nccnc3N(C)S(C)(=O)=O)n2)cc1 [defactinib]
The procedure, abridged: as §1

Compound in test [2]: CNc1nc(-c2ccc3c(N)n[nH]c3c2)cc(N2C[C@@H](C(=O)NC3CCCCC3)CC[C@H]2C)n1
The procedure, abridged:
as §1

Compound in test [3]: COC(=O)[C@H](CCSC)NC(=O)C1=C(C=C(C=C1)NC[C@H](CS)N)C2=CC=CC=C2
The procedure, abridged:
as §1

Compound in test [4]: COC1=CC=C(C=C1)CN2C=CC3=C2C=C(C=C3)C(=O)NO
Put shortly:
as §1

Compound in another test: CON(C)C(=O)N1N=C(c2cc(F)ccc2F)S[C@@]1(CCCN)c1ccccc1 [filanesib]
The procedure, abridged:
as §1

Compound in the next test: COc1cc(C(=O)O)ccc1NC(=O)[C@@H]1N[C@@H](CC(C)(C)C)[C@](C#N)(c2ccc(Cl)cc2F)[C@H]1c1cccc(Cl)c1F [idasanutlin]
Put shortly:
as §1

Compound in another test: COc1cc(Nc2ncc3c(n2)-c2ccc(Cl)cc2C(c2c(F)cccc2OC)=NC3)ccc1C(=O)O [alisertib]
The procedure, abridged: as §1

Compound in test [5]: COc1cc2nc(-c3cc(F)ccc3O)nc(N[C@@H]3CNC[C@H]3C(C)(C)O)c2cc1OC
The procedure, abridged:
as §1

Compound in a further test: COc1cc2ncnc(Nc3ccc(F)c(Cl)c3)c2cc1OCCCN1CCOCC1 [gefitinib]
Put shortly: as §1

Compound in test [6]: COc1cccc2cc(-c3nc([C@H]4CC[C@H](C(=O)O)CC4)n4ncnc(N)c34)[nH]c12
Put shortly: as §1

Compound in the next test: CS(=O)(=O)CCNCc1ccc(-c2ccc3ncnc(Nc4ccc(OCc5cccc(F)c5)c(Cl)c4)c3c2)o1 [lapatinib]
Put shortly:
as §1

Compound in a further test: CN1CC[C@H](c2c(O)cc(O)c3c(=O)cc(-c4ccccc4Cl)oc23)[C@H](O)C1 [alvocidib]
Put shortly:
as §1

Compound in the next test: CNCc1ccc(-c2[nH]c3cc(F)cc4c3c2CCNC4=O)cc1 [rucaparib]
The procedure, abridged: as §1

Compound in another test: COC(=O)N[C@@H](C)CNc1nccc(-c2cn(C(C)C)nc2-c2cc(Cl)cc(NS(C)(=O)=O)c2F)n1 [encorafenib]
Put shortly:
as §1

Compound in another test: CO[C@H]1C[C@@H]2CC[C@@H](C)[C@@](O)(O2)C(=O)C(=O)N2CCCC[C@H]2C(=O)O[C@H]([C@H](C)C[C@@H]2CC[C@H](n3cnnn3)[C@H](OC)C2)CC(=O)[C@H](C)/C=C(\C)[C@@H](O)[C@@H](OC)C(=O)[C@H](C)C[C@H](C)/C=C/C=C/C=C/1C [zotarolimus]
The procedure, abridged: as §1

Compound in the next test: CS(=O)(=O)N1CCN(Cc2cc3nc(-c4cccc5[nH]ncc45)nc(N4CCOCC4)c3s2)CC1 [pictilisib]
Put shortly: as §1

The text below walks through data of the supplement of paper PMC10849652.

The list shows a part of the results.

For the target INTS5 (UniProt Q6P9B9), the log2 fold change in the test with saracatinib is inactive: -0.051; with sotrastaurin, inactive: -0.06; in the test with Tubastatin A, inactive: -0.133; in [1], inactive: -0.086; in the test with defactinib, inactive: -0.058; in test [2] it was inactive: 0.044. Also, the log2 fold change was inactive: 0 in test [3]; inactive: -0.02 in test [4]; inactive: -0.055 with filanesib; inactive: 0.045 with idasanutlin; inactive: -0.019 with alisertib; inactive: -0.111 in test [5]. In addition, the log2 fold change with gefitinib was inactive: -0.017; in test [6], inactive: -0.004; with lapatinib it was inactive: 0.13.

As for INTS2 (UniProt Q9H0H0), the log2 fold change in the test with sotrastaurin was inactive: -0.227; in the test with alvocidib, inactive: -0.487; with Tubastatin A, inactive: 0.02; in test [1] it was inactive: -0.068; with defactinib, inactive: -0.044; with rucaparib, inactive: 0.197. Also, the log2 fold change with encorafenib is inactive: -0.015; in [3] it was inactive: -0.125; in [4] it was inactive: 0.013; in the test with filanesib, inactive: -0.003; with zotarolimus, inactive: 0.126; in the test with idasanutlin, inactive: -0.034. In addition, the log2 fold change in the test with alisertib was inactive: -0.014; in test [5], inactive: -0.111; in test [6], inactive: 0.139; with lapatinib it was inactive: -0.033; with pictilisib, inactive: -0.08.

For INAFM2 (UniProt P0DMQ5), the log2 fold change was inactive: 0.011 with sotrastaurin; inactive: -0.028 in the test with alvocidib; inactive: 0.075 in the test with Tubastatin A; inactive: -0.068 in [1]; inactive: 0.047 with rucaparib; inactive: -0.046 in the test with encorafenib. Further, the log2 fold change was inactive: -0.162 in [4]; inactive: -0.144 with filanesib; inactive: 0.005 with zotarolimus; inactive: -0.058 in the test with idasanutlin; inactive: 0.022 with alisertib; inactive: -0.091 in test [5]. The log2 fold change in the test with gefitinib is inactive: 0.001; in test [6], inactive: 0.082; with lapatinib, inactive: 0.016.

On to IGFBP6 (UniProt P24592), for which the log2 fold change is inactive: 0.011 in the test with saracatinib; inactive: 0.144 with defactinib; inactive: -0.094 in test [2]; inactive: 0.055 in test [3]; active: -1.03 with zotarolimus; active: 0.776 with idasanutlin.

Turning to ING4 (UniProt Q9UNL4), the log2 fold change with saracatinib is inactive: -0.008; in the test with Tubastatin A it was inactive: -0.233; in test [1] it was inactive: 0.209; in test [2], inactive: 0.046; in the test with idasanutlin, inactive: -0.201.

With IMP4 (UniProt Q96G21), the log2 fold change is inactive: -0.026 in the test with saracatinib; inactive: -0.024 with sotrastaurin; inactive: 0.06 in test [2]; inactive: 0.194 with filanesib; inactive: 0.079 with idasanutlin; inactive: 0.082 with pictilisib.

Consider IL23R (UniProt Q5VWK5), for which the log2 fold change was inactive: -0.427 with saracatinib; inactive: 0.233 in the test with alvocidib; inactive: 0.003 in the test with Tubastatin A; inactive: 0.15 with defactinib; inactive: 0.151 in [2]; inactive: -0.113 in test [3]. Moreover, the log2 fold change is inactive: -0.058 with zotarolimus and inactive: -0.009 with idasanutlin.

On to IFT27 (UniProt Q9BW83), for which the log2 fold change in the test with saracatinib was inactive: 0.074; with alvocidib it was inactive: -0.098; in test [1], inactive: -0.042; in test [2], inactive: -0.268; with zotarolimus, inactive: -0.161; with idasanutlin, inactive: 0.02. In addition, the log2 fold change in test [5] was inactive: 0.138; in the test with lapatinib it was inactive: 0.028; in the test with pictilisib it was inactive: -0.094.

For IGHG1 (UniProt P01857), the log2 fold change with saracatinib is inactive: -0.195; in the test with sotrastaurin, inactive: -0.02; in test [1], inactive: 0.116; in the test with defactinib, inactive: -0.224; in the test with rucaparib, inactive: -0.025; in test [2], inactive: -0.072. Also, the log2 fold change with encorafenib is inactive: -0.157; in test [3], inactive: -0.247; in the test with filanesib, inactive: 0.873; in the test with alisertib it was inactive: 0.606; with gefitinib, inactive: 0.099; in [6], inactive: -0.169.
